According to paper PMC11236974:
These are yes or no findings as the source states them, for the method shown. Binding seen in cells or lysates may run through a third protein. Some results given as binding are weak or reduced against the parent protein; the word gives no strength. Tags and fused reporters may be left off the sequences shown.

Biological target: T1, FliG of the polar flagellar system, full length (pulldown prey) (S. putrefaciens)
T1 sequence: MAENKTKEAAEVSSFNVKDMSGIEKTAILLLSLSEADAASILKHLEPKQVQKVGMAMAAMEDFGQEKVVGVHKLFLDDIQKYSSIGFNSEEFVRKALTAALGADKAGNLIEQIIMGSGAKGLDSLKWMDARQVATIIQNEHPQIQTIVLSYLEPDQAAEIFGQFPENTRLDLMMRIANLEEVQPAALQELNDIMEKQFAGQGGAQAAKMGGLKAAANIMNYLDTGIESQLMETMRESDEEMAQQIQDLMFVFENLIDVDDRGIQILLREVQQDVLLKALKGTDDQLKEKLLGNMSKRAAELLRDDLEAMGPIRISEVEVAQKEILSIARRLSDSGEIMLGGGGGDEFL
Assay: pull-down; cultures of StrepII-tagged bait and His-tagged tested proteins combined and lysed; lysate on MagStrep Strep-Tactin XT beads, 30 min, 4 °C; three washes with SEC buffer; eluted with D-biotin; Coomassie-stained SDS-PAGE

Binder	binding
FliM (of FliM/N, pulldown) (protein, UniProt A0ABX8X8Z6 1-343) MSDLLSQDEIDALLHGVDDVDDDDDLDAASQDARSYDFSSQDRIVRGRMPTLEIVNERFARHLRISMFNMMRRAAEVSINGVQMLKFGEYVHTLFVPTSLNMVRFSPLKGTALITMEARLVFILVDNFFGGDGRFHAKIEGREFTPTERRIVQLLLKIIFEDYKDAWAPVMDVEFDYLDSEVNPAMANIVSPTEVVVINSFHIEVDGGGGDFHITMPYSMIEPIRELLDAGVQSDKQDTDMRWSQALHDEIMDVKVGFDACVVEHELTLKDVMNFKAGDIIPVELPEYIMMKIEDLPTYRCKMGRSRDNLALKIYEKIPRPETVKTELQLVTRKGKARDISEL	binds
FliN (of FliM/N, pulldown) (protein, UniProt A0ABX8X9E3 1-127) MSTEDTGDDWAAAMAEQALEEANAVALDELVDDSQPISKADAAKLDTILDIPVTISMEVGRSFISIRNLLQLNQGSVVELDRVAGEPLDVMVNGTLIAHGEVVVVNDKFGIRLTDVISQTERIKKLK	binds
